PubChem BioAssay AID1259308, NCATS, 2017
This is one part, drawn at random, of about 59,000 reagents tested. In the full data, about 1,510 (2.6%) were called active. 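Calls use total luciferase alone and ignore viability, so some active siRNAs may act by altering cell number.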 Entries without a mark were called inactive. Reagents against one gene are numbered here. Further read-outs or replicates are left out here.

Screen: 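Knock-downs that increase output of a recombinant reporter protein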 (primary screen)
Cell system: human HEK293 embryonic kidney cells stably expressing firefly luciferase (HEK-CMV-Luc2-Hygro)
Reagents: single siRNA against human genes, 0.8 pmol siRNA per well
Duration: 72 h
Read-out: 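Luciferase light (ONE-Glo) measured on one replicate plate set and viability (CellTiter-Glo) on the other, scaled to a negative control siRNA, with robust z-scores and luciferase per cell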
Direction: total luciferase, z-score and total luciferase, % of control: higher = more reporter protein produced; luciferase per cell, z-score: higher = more reporter output per viable cell
Hit rule: 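An siRNA counts as active if its total luciferase robust z-score exceeds 3; genes with two or more such siRNAs out of three were retested with fresh siRNAs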
Meaning of the calls: active = raised luciferase; inactive = no rise

Gene	reagent	total luciferase, z-score	total luciferase, % of control	luciferase per cell, z-score
GPC5 (GeneID 2262)	1	0.125	84.4	-0.412
GPC5 (GeneID 2262)	2	1.3	108	0.95
GPC5 (GeneID 2262)	3	-0.835	65.3	-0.816
COL10A1 (GeneID 1300)	1	-0.323	75.5	-0.132
COL10A1 (GeneID 1300)	2	0.454	90.9	0.417
COL10A1 (GeneID 1300)	3	0.0585	83.1	0.266
PMS2P1 (GeneID 5379)	1	-0.227	77.4	-0.416
PMS2P1 (GeneID 5379)	2	-0.73	67.4	-1.12
PMS2P1 (GeneID 5379)	3	0.259	87	-0.734
CLCNKB (GeneID 1188)	1	-0.588	70.2	-0.884
CLCNKB (GeneID 1188)	2	1.34	108	1.35
CLCNKB (GeneID 1188)	3	-0.774	66.5	-0.768
SLC7A13 (GeneID 157724)	1	-1.25	57	-0.587
SLC7A13 (GeneID 157724)	2	-0.0864	80.2	1.27
SLC7A13 (GeneID 157724)	3	-0.548	71	0.574
PHKG2 (GeneID 5261)	1	-0.325	75.4	0.0476
PHKG2 (GeneID 5261)	2	0.702	95.9	-0.105
PHKG2 (GeneID 5261)	3	0.979	101	1.27
HTRA2 (GeneID 27429)	1	-0.145	79	-0.291
HTRA2 (GeneID 27429)	2	0.122	84.3	-0.507
HTRA2 (GeneID 27429)	3	0.818	98.2	1.37
DGCR6 (GeneID 8214)	1	0.423	90.3	0.245
DGCR6 (GeneID 8214)	2	0.736	96.5	2.2
DGCR6 (GeneID 8214)	3	-0.488	72.2	0.0154
COL8A1 (GeneID 1295)	1	-1.7	48.1	-1.63
COL8A1 (GeneID 1295)	2	1.12	104	0.758
COL8A1 (GeneID 1295)	3	-1.25	57.1	-1.56
LCN1 (GeneID 3933)	1	-0.0497	80.9	-0.331
LCN1 (GeneID 3933)	2	0.151	84.9	0.023
LCN1 (GeneID 3933)	3	0.023	82.3	0.543
C5 (GeneID 727)	1	0.946	101	0.224
C5 (GeneID 727)	2	-0.503	71.9	-0.702
C5 (GeneID 727)	3	-0.883	64.3	-0.482
PIWIL2 (GeneID 55124)	1	-1.67	48.7	-2.16
PIWIL2 (GeneID 55124)	2	-1.2	58	-1.55
PIWIL2 (GeneID 55124)	3	-0.516	71.6	-0.776
ENGASE (GeneID 64772)	1	0.1	83.9	0.969
ENGASE (GeneID 64772)	2	0.401	89.9	-0.177
ENGASE (GeneID 64772)	3	0.32	88.3	-0.146
PIBF1 (GeneID 10464)	1	-0.879	64.4	-1.27
PIBF1 (GeneID 10464)	2	-0.241	77.1	-0.395
PIBF1 (GeneID 10464)	3	-1.4	54.1	-1.06

Sorted by “total luciferase, z-score” (low to high): some entries from above
Gene	reagent	total luciferase, z-score	total luciferase, % of control	luciferase per cell, z-score
PIWIL2 (GeneID 55124)	1	-1.67	48.7	-2.16
PIBF1 (GeneID 10464)	3	-1.4	54.1	-1.06
PIWIL2 (GeneID 55124)	2	-1.2	58	-1.55
C5 (GeneID 727)	3	-0.883	64.3	-0.482
PIBF1 (GeneID 10464)	1	-0.879	64.4	-1.27
PIWIL2 (GeneID 55124)	3	-0.516	71.6	-0.776
C5 (GeneID 727)	2	-0.503	71.9	-0.702
PIBF1 (GeneID 10464)	2	-0.241	77.1	-0.395
ENGASE (GeneID 64772)	1	0.1	83.9	0.969
ENGASE (GeneID 64772)	3	0.32	88.3	-0.146
ENGASE (GeneID 64772)	2	0.401	89.9	-0.177

The listing continues.
Gene	reagent	total luciferase, z-score	total luciferase, % of control	luciferase per cell, z-score
RPL21P20 (GeneID 388621)	1	-0.403	73.9	0.821
RPL21P20 (GeneID 388621)	2	-2.69	28.5	-1.86
RPL21P20 (GeneID 388621)	3	-2.79	26.4	-2.53
FRG1-DT (GeneID 728339)	1	0.872	99.2	0.628
FRG1-DT (GeneID 728339)	2	-0.741	67.2	-0.632
FRG1-DT (GeneID 728339)	3	-0.666	68.6	-1.2
ERP27 (GeneID 121506)	1	1.88	119	2.48
ERP27 (GeneID 121506)	2	2.1	124	2.29
ERP27 (GeneID 121506)	3	0.0157	82.2	-0.406
NEK10 (GeneID 152110)	1	0.122	84.3	-0.282
NEK10 (GeneID 152110)	2	-0.337	75.2	-0.67
NEK10 (GeneID 152110)	3	0.334	88.5	0.608
KCNK7 (GeneID 10089)	1	-1.22	57.7	-1.02
KCNK7 (GeneID 10089)	2	-1.3	56.1	-0.686
KCNK7 (GeneID 10089)	3	0.383	89.5	-0.391
SLC4A7 (GeneID 9497)	1	0.831	98.4	1.02
SLC4A7 (GeneID 9497)	2	-0.476	72.4	-0.5
SLC4A7 (GeneID 9497)	3	0.853	98.8	1.14
PDSS2 (GeneID 57107)	1	-0.0846	80.2	-0.757
PDSS2 (GeneID 57107)	2	0.344	88.7	0.0553
PDSS2 (GeneID 57107)	3	0.393	89.7	0.452
GTF2IRD1P1 (GeneID 729156)	1	-0.944	63.1	-1.42
GTF2IRD1P1 (GeneID 729156)	2	-0.784	66.3	-0.383
GTF2IRD1P1 (GeneID 729156)	3	-0.474	72.5	-0.666
FAM24B (GeneID 196792)	1	0.255	87	-0.266
FAM24B (GeneID 196792)	2	-0.705	67.9	-1.27
FAM24B (GeneID 196792)	3	-0.69	68.2	-1.1
FGF1 (GeneID 2246)	1	0.754	96.9	0.461
FGF1 (GeneID 2246)	2	-0.463	72.7	-1.12
FGF1 (GeneID 2246)	3	2.3	128	2.29
PCDHGA12 (GeneID 26025)	1	-0.77	66.6	-0.45
PCDHGA12 (GeneID 26025)	2	-0.686	68.2	-0.835
PCDHGA12 (GeneID 26025)	3	0.975	101	0.422
